Test results from US9803450B2, “Use of oligo-quaternary compositions to increase scale inhibitor lifetime in a subterranean formation” (Ecolab USA Inc., priority 2012, dated 2017).

Test: Coreflood
Settings: for Formation damage: coreflood
Protocol: Two corefloods were carried out simultaneously on two Bandera outcrop cores (1.5″ diameter by 3″ length), using a Scaled Solutions dual coreflood apparatus. The composition of these cores is set out in the table below:
Both cores were wrapped with PTFE tape and cased in heat shrink tubing prior to insertion into a Viton sleeve and mounted in a Hassler type core holder with a confining pressure of 1200 psi. Both cores were then flushed with synthetic brine at 1 mL/min for at least 2 hours and until the differential pressure was stable. Brine was flushed at 0.5 mL/min overnight.
Both cores were saturated with synthetic brine under ambient conditions in the forward direction at 1 mL/min for 10 minutes, 2 mL/min for 10 minutes, 3 mL/min for 10 minutes, and 4 mL/min for 2 hours and until the differential pressure was stable. After a stable differential pressure was achieved, the permeability to brine was measured in the forward flow by flooding at 4, 3, 2, 1 mL/min at room temperature.
Brine was then injected into both cores in the forward direction at 1 mL/min until the oven reached a temperature of 80° C. The cores were each saturated with synthetic brine by injecting in the forward direction at 1 mL/min for 10 minutes, 2 mL/min for 10 minutes, 3 mL/min for 10 minutes, and 4 mL/min for 2 hours and until the differential pressure was stable. Following plug saturation, the permeability of each core to synthetic brine was measured in the forward flow by flooding at 4, 3, 2, and 1 mL/min at 80° C.
The pore volume of each core was then determined by injecting a solution of 50 mg/L lithium in synthetic brine into each core for 30 minutes at 1 mL/min with 0.5 mL effluent samples collected by an auto sampler. […]
Both cores were injected with synthetic brine at 2 mL/min with effluent samples being collected. The samples were analyzed by ICP. Samples were collected and analyzed until the residual scale inhibitor concentration was below the minimum inhibitor concentration.
Brine was injected into each core in the forward direction at 4 mL/min until the differential pressure was stable in order to saturate each core with brine. Following saturation, the permeability of each core to synthetic brine was measured in the forward flow by flooding at 4, 3, 2, and 1 mL/min at 80° C.
In order to determine the post treatment pore volume of both cores, a solution of 50 mg/L lithium in synthetic brine was injected into each core for 30 minutes at 1 mL/min with 0.5 mL effluent samples collected by an auto sampler. […] Each of these samples was analyzed by ICP to determine the pore volume.
A series of saturations and measurements were carried out using multi-rate flow to allow the permeability of each core to be calculated using Darcy's Law. […]

C[N+](C)(C)CC(O)C[N+](C)(C)C.[Cl-].[Cl-] [Product A, 1,3-propandiaminium, 2-hydroxy-N,N,N,N′,N′,N′-hexamethyl-, dichloride]
Formation damage: no threat of formation damage

O=P(O)(O)CN(CCCCCCN(CP(=O)(O)O)CP(=O)(O)O)CCCCCCN(CP(=O)(O)O)CP(=O)(O)O [Product B, BHMT phosphonate]
Return curve plateau concentration of scale inhibitor (FIG. 7): 1 mg/L
Pore volumes of brine until Product B concentration dropped below minimum acceptable inhibitor concentration (MIC) (MIC of 5 ppm, post flush with synthetic brine 2 mL/min): 1900 pore volumes
Formation damage: no formation damage
